Binding data for one molecule are collected here from patent US20160347810A1 (AFASCI, published 2016).

Sequences of proteins named here, by UniProt entry; tags and fusion partners are left off. A change or cut given only in a name is not applied to a line headed by its entry.
UniProt Q16602: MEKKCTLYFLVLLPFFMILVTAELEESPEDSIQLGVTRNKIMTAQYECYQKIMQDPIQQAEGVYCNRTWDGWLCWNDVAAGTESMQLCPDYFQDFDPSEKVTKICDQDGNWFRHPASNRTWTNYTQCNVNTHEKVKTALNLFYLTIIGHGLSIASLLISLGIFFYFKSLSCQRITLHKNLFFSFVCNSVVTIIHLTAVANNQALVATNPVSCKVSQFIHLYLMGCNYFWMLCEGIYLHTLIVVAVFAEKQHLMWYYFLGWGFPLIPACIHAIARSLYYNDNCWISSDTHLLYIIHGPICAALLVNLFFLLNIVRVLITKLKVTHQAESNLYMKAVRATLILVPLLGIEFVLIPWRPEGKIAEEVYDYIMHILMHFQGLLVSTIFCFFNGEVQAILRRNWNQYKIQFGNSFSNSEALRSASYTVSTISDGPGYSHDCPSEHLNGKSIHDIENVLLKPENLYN

The target in this test is T1, human calcitonin CGRP1 (CGRP1) membrane (human, UniProt Q16602 23-461; O60894 27-148).
T1 construct: whole, on cells; Purchased membrane preparation (Perkin Elmer), homogenised in assay buffer; the receptor stood in membranes, not intact cells; also called CGRP receptors; CGRP receptor
Put plainly: radioligand competition binding on human CGRP1 receptor membranes.

These are yes or no findings as the source states them, for the method shown. Some binding calls cover weakened binding; strength is not graded here.

On to YVPTAVGPFAF (C-terminal amide) [CGRP 27-37], for which the binding result is recorded as “binds”.
